According to the supplement of paper PMC12819154, “High-throughput peptide-centric local stability assay extends protein–ligand identification to membrane proteins, tissues and bacteria” (Nature Structural & Molecular Biology, 2025):
Some of the results follow. Small differences around the control level are noise.

Amino acid sequences for entries named in this document (tags omitted). A change or cut given only in a name is not applied to a line headed by its entry.
UniProt P20333, whole entry: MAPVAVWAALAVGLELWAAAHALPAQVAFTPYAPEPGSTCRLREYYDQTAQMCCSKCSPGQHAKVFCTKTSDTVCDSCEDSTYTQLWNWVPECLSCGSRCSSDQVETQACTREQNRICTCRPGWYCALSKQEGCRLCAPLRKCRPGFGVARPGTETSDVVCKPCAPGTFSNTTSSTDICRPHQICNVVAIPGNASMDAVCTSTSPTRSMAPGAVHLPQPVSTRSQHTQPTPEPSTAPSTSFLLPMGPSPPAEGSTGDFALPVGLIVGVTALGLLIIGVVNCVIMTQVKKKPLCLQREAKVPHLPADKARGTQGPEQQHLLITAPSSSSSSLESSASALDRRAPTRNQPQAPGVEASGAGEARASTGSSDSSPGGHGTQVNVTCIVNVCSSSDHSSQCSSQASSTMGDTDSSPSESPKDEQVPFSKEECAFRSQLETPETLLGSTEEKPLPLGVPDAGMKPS
UniProt P28340: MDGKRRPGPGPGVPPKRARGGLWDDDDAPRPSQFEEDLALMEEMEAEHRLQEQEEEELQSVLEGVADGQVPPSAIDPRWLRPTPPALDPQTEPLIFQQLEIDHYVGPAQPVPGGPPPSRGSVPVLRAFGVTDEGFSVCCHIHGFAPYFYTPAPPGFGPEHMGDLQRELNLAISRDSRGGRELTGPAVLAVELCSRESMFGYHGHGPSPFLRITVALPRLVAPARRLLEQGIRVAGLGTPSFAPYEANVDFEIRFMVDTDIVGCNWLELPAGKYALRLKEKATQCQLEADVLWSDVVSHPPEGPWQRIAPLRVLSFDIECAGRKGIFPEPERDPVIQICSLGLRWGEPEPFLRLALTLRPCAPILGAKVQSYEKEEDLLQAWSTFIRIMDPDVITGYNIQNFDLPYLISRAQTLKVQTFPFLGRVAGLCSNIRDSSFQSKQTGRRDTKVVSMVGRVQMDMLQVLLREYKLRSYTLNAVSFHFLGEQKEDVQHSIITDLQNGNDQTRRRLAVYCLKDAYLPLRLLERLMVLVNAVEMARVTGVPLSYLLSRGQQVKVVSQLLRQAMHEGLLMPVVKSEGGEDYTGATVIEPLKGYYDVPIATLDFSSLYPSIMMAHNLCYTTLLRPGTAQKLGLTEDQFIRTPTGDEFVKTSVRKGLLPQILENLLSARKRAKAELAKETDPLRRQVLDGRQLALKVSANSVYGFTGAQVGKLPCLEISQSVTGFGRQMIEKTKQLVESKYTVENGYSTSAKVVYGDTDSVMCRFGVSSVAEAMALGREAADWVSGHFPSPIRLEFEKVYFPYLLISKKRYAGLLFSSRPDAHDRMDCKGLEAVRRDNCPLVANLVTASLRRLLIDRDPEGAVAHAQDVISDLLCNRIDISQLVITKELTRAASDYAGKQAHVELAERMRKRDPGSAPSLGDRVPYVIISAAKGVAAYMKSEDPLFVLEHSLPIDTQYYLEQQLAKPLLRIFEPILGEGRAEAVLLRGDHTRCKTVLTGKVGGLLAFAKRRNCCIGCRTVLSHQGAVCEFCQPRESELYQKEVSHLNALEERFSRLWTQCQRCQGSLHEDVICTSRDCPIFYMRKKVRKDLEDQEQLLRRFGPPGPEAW
UniProt P14317: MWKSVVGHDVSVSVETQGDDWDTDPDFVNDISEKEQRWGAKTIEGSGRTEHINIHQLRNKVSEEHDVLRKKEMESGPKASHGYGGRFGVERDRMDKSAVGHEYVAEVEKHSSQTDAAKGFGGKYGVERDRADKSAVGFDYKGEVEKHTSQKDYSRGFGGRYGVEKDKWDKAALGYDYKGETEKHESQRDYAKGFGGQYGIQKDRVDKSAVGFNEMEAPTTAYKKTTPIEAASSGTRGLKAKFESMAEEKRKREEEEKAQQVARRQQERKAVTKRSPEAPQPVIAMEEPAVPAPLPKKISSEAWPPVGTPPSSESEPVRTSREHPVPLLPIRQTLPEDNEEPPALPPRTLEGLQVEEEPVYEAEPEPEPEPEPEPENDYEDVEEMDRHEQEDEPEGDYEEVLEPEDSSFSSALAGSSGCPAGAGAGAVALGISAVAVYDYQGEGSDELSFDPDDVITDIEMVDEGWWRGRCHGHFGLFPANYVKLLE
UniProt P14921: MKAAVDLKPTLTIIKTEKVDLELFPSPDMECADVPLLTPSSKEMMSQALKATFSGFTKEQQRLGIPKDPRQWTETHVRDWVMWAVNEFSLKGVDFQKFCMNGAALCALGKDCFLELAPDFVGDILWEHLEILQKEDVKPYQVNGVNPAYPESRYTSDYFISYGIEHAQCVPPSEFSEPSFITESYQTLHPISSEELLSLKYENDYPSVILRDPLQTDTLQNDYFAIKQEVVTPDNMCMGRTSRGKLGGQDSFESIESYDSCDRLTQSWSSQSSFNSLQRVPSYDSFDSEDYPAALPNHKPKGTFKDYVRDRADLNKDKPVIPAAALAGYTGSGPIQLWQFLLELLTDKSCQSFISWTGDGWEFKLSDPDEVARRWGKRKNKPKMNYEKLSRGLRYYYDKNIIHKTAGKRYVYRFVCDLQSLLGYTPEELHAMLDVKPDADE
UniProt P19404, whole entry: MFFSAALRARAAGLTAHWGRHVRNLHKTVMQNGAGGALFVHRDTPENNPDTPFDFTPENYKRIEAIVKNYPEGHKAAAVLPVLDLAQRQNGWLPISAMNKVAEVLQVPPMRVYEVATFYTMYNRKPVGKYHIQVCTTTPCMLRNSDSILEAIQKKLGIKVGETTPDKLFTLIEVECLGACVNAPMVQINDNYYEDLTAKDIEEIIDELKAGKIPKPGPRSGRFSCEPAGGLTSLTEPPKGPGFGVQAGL
UniProt P17535: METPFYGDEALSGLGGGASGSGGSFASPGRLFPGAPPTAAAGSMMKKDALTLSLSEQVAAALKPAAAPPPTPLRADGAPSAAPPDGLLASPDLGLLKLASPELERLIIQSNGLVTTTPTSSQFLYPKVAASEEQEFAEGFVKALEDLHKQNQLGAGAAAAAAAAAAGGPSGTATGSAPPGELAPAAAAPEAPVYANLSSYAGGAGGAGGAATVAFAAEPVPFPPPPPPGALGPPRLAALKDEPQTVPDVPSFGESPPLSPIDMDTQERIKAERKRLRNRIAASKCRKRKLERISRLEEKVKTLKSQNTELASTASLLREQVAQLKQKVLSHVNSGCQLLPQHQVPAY
UniProt P28562: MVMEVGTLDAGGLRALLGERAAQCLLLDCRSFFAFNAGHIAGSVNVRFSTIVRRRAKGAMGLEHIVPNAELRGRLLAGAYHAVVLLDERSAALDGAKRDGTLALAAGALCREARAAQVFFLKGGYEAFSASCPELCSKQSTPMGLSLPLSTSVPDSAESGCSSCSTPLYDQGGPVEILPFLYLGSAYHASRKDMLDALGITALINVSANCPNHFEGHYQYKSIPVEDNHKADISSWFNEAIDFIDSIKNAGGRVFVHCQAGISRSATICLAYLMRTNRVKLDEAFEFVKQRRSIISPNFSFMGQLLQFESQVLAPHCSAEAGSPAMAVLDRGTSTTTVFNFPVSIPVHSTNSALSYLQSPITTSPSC
UniProt P26367: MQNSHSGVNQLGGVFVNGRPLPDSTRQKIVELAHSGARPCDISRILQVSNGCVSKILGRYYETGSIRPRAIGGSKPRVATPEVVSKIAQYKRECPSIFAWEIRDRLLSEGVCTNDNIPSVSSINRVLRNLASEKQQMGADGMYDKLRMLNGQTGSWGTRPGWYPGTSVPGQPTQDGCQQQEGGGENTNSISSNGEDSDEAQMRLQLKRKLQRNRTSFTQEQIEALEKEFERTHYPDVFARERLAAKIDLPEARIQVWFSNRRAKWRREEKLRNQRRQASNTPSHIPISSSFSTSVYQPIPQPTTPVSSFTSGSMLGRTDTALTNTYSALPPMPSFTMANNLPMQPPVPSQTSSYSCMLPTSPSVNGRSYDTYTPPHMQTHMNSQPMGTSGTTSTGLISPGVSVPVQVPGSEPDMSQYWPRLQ
UniProt P15311, whole entry: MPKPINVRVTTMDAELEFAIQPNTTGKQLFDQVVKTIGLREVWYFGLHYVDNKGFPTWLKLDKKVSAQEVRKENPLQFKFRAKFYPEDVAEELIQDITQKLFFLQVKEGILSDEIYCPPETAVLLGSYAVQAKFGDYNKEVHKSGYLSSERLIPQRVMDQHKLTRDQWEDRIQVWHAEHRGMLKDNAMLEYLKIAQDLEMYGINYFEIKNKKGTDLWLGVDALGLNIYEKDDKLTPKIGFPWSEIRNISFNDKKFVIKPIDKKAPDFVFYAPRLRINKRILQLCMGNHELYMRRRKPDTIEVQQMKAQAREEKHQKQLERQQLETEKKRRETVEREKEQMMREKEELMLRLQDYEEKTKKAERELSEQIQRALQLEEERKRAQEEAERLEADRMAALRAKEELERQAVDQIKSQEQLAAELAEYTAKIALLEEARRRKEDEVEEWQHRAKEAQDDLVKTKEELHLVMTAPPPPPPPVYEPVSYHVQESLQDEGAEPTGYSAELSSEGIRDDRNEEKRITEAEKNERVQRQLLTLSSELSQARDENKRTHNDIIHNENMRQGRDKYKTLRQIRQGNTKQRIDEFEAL
UniProt P24666: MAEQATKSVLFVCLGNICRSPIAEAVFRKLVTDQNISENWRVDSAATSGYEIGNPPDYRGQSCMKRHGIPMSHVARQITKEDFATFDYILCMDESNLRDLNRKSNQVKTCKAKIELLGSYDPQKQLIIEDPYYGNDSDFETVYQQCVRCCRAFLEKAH
UniProt P26196: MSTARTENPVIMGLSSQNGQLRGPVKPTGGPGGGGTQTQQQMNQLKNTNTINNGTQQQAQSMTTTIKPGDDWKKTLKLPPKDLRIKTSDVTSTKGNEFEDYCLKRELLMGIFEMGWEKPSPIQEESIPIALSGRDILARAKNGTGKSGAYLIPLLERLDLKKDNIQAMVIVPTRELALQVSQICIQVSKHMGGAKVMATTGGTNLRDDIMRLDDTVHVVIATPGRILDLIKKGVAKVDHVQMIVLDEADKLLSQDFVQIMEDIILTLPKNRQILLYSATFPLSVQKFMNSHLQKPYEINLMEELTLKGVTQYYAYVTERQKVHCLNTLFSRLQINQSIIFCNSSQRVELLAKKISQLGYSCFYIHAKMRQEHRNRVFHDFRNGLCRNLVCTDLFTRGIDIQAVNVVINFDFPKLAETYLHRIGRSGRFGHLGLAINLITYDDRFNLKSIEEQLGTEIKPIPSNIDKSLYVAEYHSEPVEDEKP
UniProt P18615, whole entry: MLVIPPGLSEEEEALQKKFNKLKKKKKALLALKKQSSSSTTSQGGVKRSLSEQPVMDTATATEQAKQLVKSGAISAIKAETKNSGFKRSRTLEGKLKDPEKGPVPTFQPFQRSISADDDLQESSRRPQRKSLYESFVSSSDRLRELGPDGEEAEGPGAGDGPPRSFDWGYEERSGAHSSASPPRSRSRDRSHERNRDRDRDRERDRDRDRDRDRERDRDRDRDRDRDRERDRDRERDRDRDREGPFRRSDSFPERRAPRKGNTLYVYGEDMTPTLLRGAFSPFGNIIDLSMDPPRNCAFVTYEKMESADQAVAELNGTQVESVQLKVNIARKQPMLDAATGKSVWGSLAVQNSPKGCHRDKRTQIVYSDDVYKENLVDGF
UniProt P28065: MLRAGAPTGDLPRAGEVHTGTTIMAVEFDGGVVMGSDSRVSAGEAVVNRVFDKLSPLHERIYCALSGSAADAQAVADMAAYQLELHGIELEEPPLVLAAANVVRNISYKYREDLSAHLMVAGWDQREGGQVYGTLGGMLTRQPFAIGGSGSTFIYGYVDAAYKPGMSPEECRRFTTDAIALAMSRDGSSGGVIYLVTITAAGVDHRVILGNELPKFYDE
UniProt P20073: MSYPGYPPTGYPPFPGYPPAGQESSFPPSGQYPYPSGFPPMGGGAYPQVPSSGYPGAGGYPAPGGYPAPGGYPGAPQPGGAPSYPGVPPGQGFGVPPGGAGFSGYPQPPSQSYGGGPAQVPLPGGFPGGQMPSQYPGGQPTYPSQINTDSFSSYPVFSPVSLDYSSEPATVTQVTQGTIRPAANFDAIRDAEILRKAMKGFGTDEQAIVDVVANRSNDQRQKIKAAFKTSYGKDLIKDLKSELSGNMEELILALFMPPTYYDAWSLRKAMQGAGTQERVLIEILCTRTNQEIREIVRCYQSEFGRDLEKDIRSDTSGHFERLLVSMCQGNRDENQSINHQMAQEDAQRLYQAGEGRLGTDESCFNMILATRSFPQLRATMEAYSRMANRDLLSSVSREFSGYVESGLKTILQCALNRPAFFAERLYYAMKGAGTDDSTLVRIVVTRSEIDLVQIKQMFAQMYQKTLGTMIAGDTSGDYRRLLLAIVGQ
UniProt P25325: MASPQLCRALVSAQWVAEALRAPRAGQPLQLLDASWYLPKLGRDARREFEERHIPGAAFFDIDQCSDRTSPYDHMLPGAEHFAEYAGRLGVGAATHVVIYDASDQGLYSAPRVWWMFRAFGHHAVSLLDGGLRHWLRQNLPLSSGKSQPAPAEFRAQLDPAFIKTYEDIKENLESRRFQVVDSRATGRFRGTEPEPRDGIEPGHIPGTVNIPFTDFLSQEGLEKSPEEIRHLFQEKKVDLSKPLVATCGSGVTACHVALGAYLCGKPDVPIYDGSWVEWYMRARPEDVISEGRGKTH

What follows are targets tested with Cc1nc(Nc2ncc(C(=O)Nc3c(C)cccc3Cl)s2)cc(N2CCN(CCO)CC2)n1 [dasatinib] (assay: log2 fold change of tryptic peptide abundance, ligand vs vehicle (limited proteolysis) (log2 ratio); higher = more trypsin-susceptible (destabilized)). Details: ligand concentration: 5 uM; sample: K562 cleared lysate.

| Target | log2 fold change |
| --- | --- |
| TNFRSF1B (peptide sequence: VPHLPADK, peptide start residue: 300) (UniProt P20333) | -0.0508 |
| PFKL (peptide sequence: DTDFEHR, peptide start residue: 728) (UniProt P17858) | -0.142 |
| POLD1 (peptide sequence: RFGPPGPEAW, peptide start residue: 1098) (UniProt P28340) | 0.14 |
| HCLS1 (peptide sequence: SAVGFDYKGEVEKHTSQK, peptide start residue: 134) (UniProt P14317) | 0.442 |
| ETS1 (peptide sequence: VPSYDSFDSEDYPAALPNHKPK, peptide start residue: 280) (UniProt P14921) | -0.29 |
| NEB (peptide sequence: AGVAASK, peptide start residue: 339) (UniProt P20929) | 0.254 |
| NDUFV2 (peptide sequence: VAEVLQVPPMR, peptide start residue: 101) (UniProt P19404) | 0.203 |
| TFE3 (peptide sequence: DGVEASAEGPR, peptide start residue: 10) (UniProt P19532) | 0.284 |
| UniProt P17752 (peptide sequence: EKMREFTK, peptide start residue: 384) | -0.241 |
| JUND (peptide sequence: LASPELER, peptide start residue: 71) (UniProt P17535) | 0.0686 |
| ACO1 (peptide sequence: NQDLEFER, peptide start residue: 142) (UniProt P21399) | -0.392 |
| MYL6B (peptide sequence: HVLTTLGEK, peptide start residue: 168) (UniProt P14649) | -0.26 |
| MAP4 (peptide sequence: TTDMAPSKETEMALAKDMALATK, peptide start residue: 247) (UniProt P27816) | -0.311 |
| PPP3CB (peptide sequence: AAPPPPPPPPPPPGADRVVK, peptide start residue: 9) (UniProt P16298) | -0.173 |
| UniProt P28562 (peptide sequence: AAQVFFLK, peptide start residue: 115) | 0.503 |
| RAC2 (peptide sequence: LDLRDDKDTIEK, peptide start residue: 117) (UniProt P15153) | -0.275 |
| UniProt P26367 (peptide sequence: THYPDVFAR, peptide start residue: 232) | -0.142 |
| EZR (peptide sequence: ITEAEKNER, peptide start residue: 518) (UniProt P15311) | 0.174 |
| ACP1 (peptide sequence: KLVTDQNISENWR, peptide start residue: 29) (UniProt P24666) | 0.0499 |
| DDX6 (peptide sequence: GNEFEDYCLKR, peptide start residue: 95) (UniProt P26196) | -0.137 |
| RPA1 (peptide sequence: GDTNIKPILQVINIR, peptide start residue: 17) (UniProt P27694) | -0.699 |
| NAT1 (peptide sequence: SFCSLQTPDGVHCLVGFTLTHR, peptide start residue: 221) (UniProt P18440) | 0.527 |
| PRKACB (peptide sequence: QIEHTLNEK, peptide start residue: 85) (UniProt P22694) | 0.839 |
| UniProt P18615 (peptide sequence: KQSSSSTTSQGGVK, peptide start residue: 34) | -0.745 |
| ACAT1 (peptide sequence: LEDLIVKDGLTDVYNK, peptide start residue: 175) (UniProt P24752) | 0.148 |
| PSMB9 (peptide sequence: AGAPTGDLPR, peptide start residue: 4) (UniProt P28065) | -0.0493 |
| UniProt P28066 (peptide sequence: EAIKSSLIILK, peptide start residue: 193) | 0.759 |
| ANXA7 (peptide sequence: DLLSSVSR, peptide start residue: 390) (UniProt P20073) | -0.109 |
| MPST (peptide sequence: HIPGAAFFDIDQCSDR, peptide start residue: 53) (UniProt P25325) | 0.297 |

Looked up above:
Entry of NAT1 (peptide sequence: SFCSLQTPDGVHCLVGFTLTHR, peptide start residue: 221) (UniProt P18440) under log2 fold change: 0.527
Entry of PFKL (peptide sequence: DTDFEHR, peptide start residue: 728) (UniProt P17858) under log2 fold change: -0.142
